{"sequences": {"note": "Chains of the proteins cited; added tags and fusions are not shown. Residues count along the entry.", "UniProt M1C146, residues 5-114": "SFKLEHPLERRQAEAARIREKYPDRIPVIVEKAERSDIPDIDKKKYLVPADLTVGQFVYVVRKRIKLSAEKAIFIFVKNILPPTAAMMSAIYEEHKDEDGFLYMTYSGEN", "UniProt D0NBE6, residues 20-381": "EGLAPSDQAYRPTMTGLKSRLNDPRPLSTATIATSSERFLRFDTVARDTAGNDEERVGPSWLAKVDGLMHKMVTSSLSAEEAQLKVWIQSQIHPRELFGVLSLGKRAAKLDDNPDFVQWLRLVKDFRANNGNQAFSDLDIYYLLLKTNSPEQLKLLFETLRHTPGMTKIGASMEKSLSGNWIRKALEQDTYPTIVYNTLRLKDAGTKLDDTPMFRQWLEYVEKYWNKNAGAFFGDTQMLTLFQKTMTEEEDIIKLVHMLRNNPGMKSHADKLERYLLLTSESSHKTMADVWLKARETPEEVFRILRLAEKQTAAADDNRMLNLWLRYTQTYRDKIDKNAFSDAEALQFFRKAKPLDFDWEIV"}, "source": "paper PMC6675122", "about": "“N-terminal β-strand underpins biochemical specialization of an ATG8 isoform” (PLoS Biology, 2019)", "target": "GFP:ATG8-2.2 (Solanum tuberosum (potato)) (UniProt M1C146)", "experiment": "co-IP", "note": "Results are given in words; binding and its absence hold for the method and conditions named. Binding seen in cells or lysates may run through a third protein. Some binding calls cover weakened binding; strength is not graded here.", "data": [{"substance": "RFP:PiPexRD54 (from UniProt D0NBE6 20-381)", "values": [{"measurement": "binding", "value": "binds"}]}]}
